Measured values reported in PMC10250205.

Molecular target: T1, FLAG-mGCNA (mouse Germ Cell Nuclear Acidic protein, FLAG-tagged) (mouse)
T1 sequence: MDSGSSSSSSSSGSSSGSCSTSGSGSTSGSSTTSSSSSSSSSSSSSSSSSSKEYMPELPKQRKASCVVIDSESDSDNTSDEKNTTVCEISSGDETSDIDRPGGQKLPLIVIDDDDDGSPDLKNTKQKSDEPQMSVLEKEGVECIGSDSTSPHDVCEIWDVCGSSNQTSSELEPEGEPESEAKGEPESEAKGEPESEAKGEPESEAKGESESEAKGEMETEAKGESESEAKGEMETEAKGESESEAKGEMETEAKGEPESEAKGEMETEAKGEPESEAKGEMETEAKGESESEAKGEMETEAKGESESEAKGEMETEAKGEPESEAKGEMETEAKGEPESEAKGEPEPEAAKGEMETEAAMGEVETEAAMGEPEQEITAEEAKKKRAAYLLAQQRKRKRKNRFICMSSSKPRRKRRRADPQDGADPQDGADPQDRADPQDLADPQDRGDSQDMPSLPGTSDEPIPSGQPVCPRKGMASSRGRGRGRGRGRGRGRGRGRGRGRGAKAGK
Assay: co-IP; anti-FLAG magnetic beads on the soluble (chromatin-free) fraction of 3T3 cells transiently transfected with FLAG-mGCNA; Benzonase and DNAse I added; binding buffer 20 mM Tris-HCl pH 7.4, 150 mM NaCl; overnight at 4°C; western blot

Q: With “Topoisomerase 2 (TOP2) (mouse (endogenous in NIH3T3)) (enzyme)” as the substance, how does the binding read?
A: binds

No constants are given. Whether binding was seen depends on the method and setting. Binding seen in cells or lysates may run through a third protein. Binding can be weak; no strength is given. Sequences can lack the tags named with a protein.
